Each structure is given as a SMILES string.

The assay addresses BRD4 (Homo sapiens, UniProt O60885). The assay is described as follows: Differential Scanning Fluorimetry (DSF), stability of BRD4 upon ligand binding. The settings on record: 100 μM protein, 4 μM compound and 2% DMSO. As to the method:
DSF=Differential Scanning Fluorimetry; provides a measure of the increased stability of BRD4 upon ligand binding The DSF experiment was run at 100 μM protein, 4 μM compound and 2% DMSO.
For orientation: DSF heats the sample and reads unfolding from a dye or from intrinsic fluorescence.

What is called ΔTm is the shift of the melting midpoint relative to a reference. As for `CCc1cnn2c(NCc3ccc[n+]([O-])c3)cc(N3CCCC[C@H]3CCO)nc12` [Dinaciclib, reference compound], the ΔTm at 4 µM turned out to be 0.53 °C.

These data come from patent publication US10526291B2, “Potent dual BRD4-kinase inhibitors as cancer therapeutics” (H. Lee Moffitt Cancer Center and Research Institute, Inc., priority 2014, dated 2020).
